# Reference: the supplement of paper PMC8728848
# The other results are listed elsewhere or left out.
# Tests used:
# Assay in all cases: glycan array binding signal (z-score within array); higher = stronger binding
# Settings in all cases: glycan notation: IUPAC condensed, linker removed
# Gal3S6S(b1-4)GlcNAc = target: Gal3S6S(b1-4)GlcNAc
# How it was run: (§1)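 Negative Z-scores can be read as non-binding. The Z-score is calculated within each array and then averaged across arrays of one protein sequence at different concentrations or buffers and across linkers. Arrays, 3228 in all, were curated from the Consortium for Functional Glycomics database and kept only where the protein sequence was available.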
# Gal3S6S(b1-4)GlcNAc6S = target: Gal3S6S(b1-4)GlcNAc6S
# How it was run: as §1
# Gal4S(b1-4)GlcNAc = target: Gal4S(b1-4)GlcNAc
# How it was run: as §1
# Gal4S6S(b1-4)GlcNAc = target: Gal4S6S(b1-4)GlcNAc
# How it was run: as §1
# Gal6P(b1-4)GlcNAc = target: Gal6P(b1-4)GlcNAc
# How it was run: as §1
# Gal6S(b1-3)GlcNAc = target: Gal6S(b1-3)GlcNAc
# How it was run: as §1
# Gal6S(b1-3)GlcNAc6S = target: Gal6S(b1-3)GlcNAc6S
# How it was run: as §1
# Gal6S(b1-4)Glc = target: Gal6S(b1-4)Glc
# How it was run: as §1
# Gal6S(b1-4)Glc6S = target: Gal6S(b1-4)Glc6S
# How it was run: as §1
# Gal6S(b1-4)GlcNAc = target: Gal6S(b1-4)GlcNAc
# How it was run: as §1
# Gal6S(b1-4)GlcNAc6S = target: Gal6S(b1-4)GlcNAc6S
# How it was run: as §1
# GalNAc(a1-3)Gal = target: GalNAc(a1-3)Gal
# How it was run: as §1
# GalNAc(a1-3)GalNAc = target: GalNAc(a1-3)GalNAc
# How it was run: as §1
# [1] = target: GalNAc(a1-3)GalNAc(a1-3)Gal(a1-4)Gal(b1-4)GlcNAc
# How it was run: as §1
# [2] = target: GalNAc(a1-3)GalNAc(b1-3)Gal(a1-4)Gal(b1-4)Glc
# How it was run: as §1
# GalNAc(b1-3)Gal = target: GalNAc(b1-3)Gal
# How it was run: as §1
# [3] = target: GalNAc(b1-3)Gal(a1-4)Gal(b1-4)GlcNAc
# How it was run: as §1
# [4] = target: GalNAc(b1-3)Gal(a1-4)Gal(b1-4)GlcNAc(b1-3)Gal(b1-4)Glc
# How it was run: as §1
# [5] = target: GalNAc(b1-3)Gal(a1-6)Gal(b1-4)Glc
# How it was run: as §1
# GalNAc(b1-3)GalNAc = target: GalNAc(b1-3)GalNAc
# How it was run: as §1
# GalNAc(b1-3)GlcNAc = target: GalNAc(b1-3)GlcNAc
# How it was run: as §1
# GalNAc(b1-4)Gal(b1-4)Glc = target: GalNAc(b1-4)Gal(b1-4)Glc
# How it was run: as §1
# GalNAc(b1-4)GlcNAc = target: GalNAc(b1-4)GlcNAc
# How it was run: as §1
# [6] = target: GalNAc(b1-4)GlcNAc(b1-2)Man
# How it was run: as §1
# [7] = target: GalNAc(b1-4)GlcNAc(b1-2)Man(a1-3)[GalNAc(b1-4)GlcNAc(b1-2)Man(a1-6)]Man(b1-4)GlcNAc(b1-4)GlcNAc
# How it was run: as §1
# [8] = target: GalNAc(b1-4)GlcNAc(b1-3)GalNAc(b1-4)GlcNAc
# How it was run: as §1
# GalNAc(b1-4)GlcNAc6S = target: GalNAc(b1-4)GlcNAc6S
# How it was run: as §1
# GalNAc(b1-6)GalNAc = target: GalNAc(b1-6)GalNAc
# How it was run: as §1
# GalNAc3S(b1-4)GlcNAc = target: GalNAc3S(b1-4)GlcNAc
# How it was run: as §1
# GalNAc3S(b1-4)GlcNAc3S = target: GalNAc3S(b1-4)GlcNAc3S
# How it was run: as §1
# [9] = target: GalNAc3S(b1-4)[Fuc(a1-3)]GlcNAc
# How it was run: as §1
# GalNAc4S6S(b1-4)GlcNAc = target: GalNAc4S6S(b1-4)GlcNAc
# How it was run: as §1
# GalNAc6S(b1-4)GlcNAc = target: GalNAc6S(b1-4)GlcNAc
# How it was run: as §1
# Glc(a1-4)Glc = target: Glc(a1-4)Glc
# How it was run: as §1
# [10] = target: Glc(a1-4)Glc(a1-4)Glc(a1-4)Glc
# How it was run: as §1
# Glc(a1-6)Glc(a1-6)Glc = target: Glc(a1-6)Glc(a1-6)Glc
# How it was run: as §1
# [11] = target: Glc(a1-6)Glc(a1-6)Glc(a1-6)Glc
# How it was run: as §1
# Glc(b1-4)Glc = target: Glc(b1-4)Glc
# How it was run: as §1
binder,measurement,setting,value
"AntigenI/IIC123 (Streptococcus mutans), C9E3B4 (protein) MASMTGGQQMGRIHFHYFKLAVQPQVNKEIRNNNDINIDRTLVAKQSVVKFQLKTADLPAGRDETTSFVLVDPLPSGYQFNPEATKAASPGFDVTYDNATNTVTFKATAATLATFNADLTKSVATIYPTVVGQVLNDGATYKNNFTLTVNDAYGIKSNVVRVTTPGKPNDPDNPNNNYIKPTKVNKNENGVVIDGKTVLAGSTNYYELTWDLDQYKNDRSSADTIQKGFYYVDDYPEEALELRQDLVKITDANGNEVTGVSVDNYTNLEAAPQEIRDVLSKAGIRPKGAFQIFRADNPREFYDTYVKTGIDLKIVSPMVVKKQMGQTGGSYENQAYQIDFGNGYASNIIINNVPKINPKKDVTLTLDPADTNNVDGQTIPLNTVFNYRLIGGIIPADHSEELFEYNFYDDYDQTGDHYTGQYKVFAKVDITFKDGSIIKSGAELTQYTTAEVDTAKGAITIKFKEAFLRSVSIDSAFQAESYIQMKRIAVGTFENTYINTVNGVTYSSLEHHHHHH",glycan array binding signal (z-score),Gal3S6S(b1-4)GlcNAc,-0.745
same,glycan array binding signal (z-score),Gal3S6S(b1-4)GlcNAc6S,-0.223
same,glycan array binding signal (z-score),Gal4S(b1-4)GlcNAc,1.04
same,glycan array binding signal (z-score),Gal4S6S(b1-4)GlcNAc,-0.71
same,glycan array binding signal (z-score),Gal6P(b1-4)GlcNAc,-0.46
same,glycan array binding signal (z-score),Gal6S(b1-3)GlcNAc,2.1
same,glycan array binding signal (z-score),Gal6S(b1-3)GlcNAc6S,-0.842
same,glycan array binding signal (z-score),Gal6S(b1-4)Glc,-0.033
same,glycan array binding signal (z-score),Gal6S(b1-4)Glc6S,0.758
same,glycan array binding signal (z-score),Gal6S(b1-4)GlcNAc,-0.348
same,glycan array binding signal (z-score),Gal6S(b1-4)GlcNAc6S,0.272
same,glycan array binding signal (z-score),GalNAc(a1-3)Gal,0.205
same,glycan array binding signal (z-score),GalNAc(a1-3)GalNAc,-0.53
same,glycan array binding signal (z-score),[1],-0.785
same,glycan array binding signal (z-score),[2],-0.246
same,glycan array binding signal (z-score),GalNAc(b1-3)Gal,-0.216
same,glycan array binding signal (z-score),[3],0.6
same,glycan array binding signal (z-score),[4],-0.71
same,glycan array binding signal (z-score),[5],-0.98
same,glycan array binding signal (z-score),GalNAc(b1-3)GalNAc,-0.97
same,glycan array binding signal (z-score),GalNAc(b1-3)GlcNAc,-0.602
same,glycan array binding signal (z-score),GalNAc(b1-4)Gal(b1-4)Glc,0.156
same,glycan array binding signal (z-score),GalNAc(b1-4)GlcNAc,1.11
same,glycan array binding signal (z-score),[6],1.82
same,glycan array binding signal (z-score),[7],0.62
same,glycan array binding signal (z-score),[8],1.09
same,glycan array binding signal (z-score),GalNAc(b1-4)GlcNAc6S,0.659
same,glycan array binding signal (z-score),GalNAc(b1-6)GalNAc,-0.87
same,glycan array binding signal (z-score),GalNAc3S(b1-4)GlcNAc,-1.45
same,glycan array binding signal (z-score),GalNAc3S(b1-4)GlcNAc3S,-0.623
same,glycan array binding signal (z-score),[9],-0.315
same,glycan array binding signal (z-score),GalNAc4S6S(b1-4)GlcNAc,-0.7
same,glycan array binding signal (z-score),GalNAc6S(b1-4)GlcNAc,-0.005
same,glycan array binding signal (z-score),Glc(a1-4)Glc,-0.709
same,glycan array binding signal (z-score),[10],-0.371
same,glycan array binding signal (z-score),Glc(a1-6)Glc(a1-6)Glc,-0.039
same,glycan array binding signal (z-score),[11],1.8
same,glycan array binding signal (z-score),Glc(b1-4)Glc,1.18

# Quoted from above (two entries):
binder,measurement,setting,value
"AntigenI/IIC123 (Streptococcus mutans), C9E3B4 (protein) MASMTGGQQMGRIHFHYFKLAVQPQVNKEIRNNNDINIDRTLVAKQSVVKFQLKTADLPAGRDETTSFVLVDPLPSGYQFNPEATKAASPGFDVTYDNATNTVTFKATAATLATFNADLTKSVATIYPTVVGQVLNDGATYKNNFTLTVNDAYGIKSNVVRVTTPGKPNDPDNPNNNYIKPTKVNKNENGVVIDGKTVLAGSTNYYELTWDLDQYKNDRSSADTIQKGFYYVDDYPEEALELRQDLVKITDANGNEVTGVSVDNYTNLEAAPQEIRDVLSKAGIRPKGAFQIFRADNPREFYDTYVKTGIDLKIVSPMVVKKQMGQTGGSYENQAYQIDFGNGYASNIIINNVPKINPKKDVTLTLDPADTNNVDGQTIPLNTVFNYRLIGGIIPADHSEELFEYNFYDDYDQTGDHYTGQYKVFAKVDITFKDGSIIKSGAELTQYTTAEVDTAKGAITIKFKEAFLRSVSIDSAFQAESYIQMKRIAVGTFENTYINTVNGVTYSSLEHHHHHH",glycan array binding signal (z-score),[4],-0.71
same,glycan array binding signal (z-score),[5],-0.98
